The list shows a part of the results.

By UniProt entry, the sequences of proteins in these tests, tags left out.
UniProt Q0JBA9, entry or part of it: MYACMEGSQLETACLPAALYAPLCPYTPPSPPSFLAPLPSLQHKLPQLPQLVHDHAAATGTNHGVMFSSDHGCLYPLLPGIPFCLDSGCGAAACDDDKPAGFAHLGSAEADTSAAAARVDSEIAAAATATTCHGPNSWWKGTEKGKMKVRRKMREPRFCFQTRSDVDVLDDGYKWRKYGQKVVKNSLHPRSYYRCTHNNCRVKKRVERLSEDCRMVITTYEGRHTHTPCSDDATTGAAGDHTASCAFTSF

This experiment concerns the target OsWRKY34 (Oryza sativa, UniProt Q0JBA9 1-250). The experiment in a line: protein-binding microarray (RPBM); PBS, 2% BSA, 51.3 ng/ul salmon testes DNA, 50 uM zinc acetate, 200 nM TF, 25 C, 1 h; high values mean tight binding. Conditions: protein: recombinant; tags: N-terminal polyhistidine and DsRed monomer fusion (pET32a); label: CyDye5-dUTP incorporated in the synthesized complementary strand; 3' TTTTT single-stranded linker to array surface; dsDNA, one strand shown. The essentials: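 Binding signal is defined as the fluorescence intensity of each feature in arbitrary units, read on an Axon 4000B scanner. Transcription factors with N-terminal polyhistidine and DsRed fusions came from E. coli BL21-CodonPlus and were purified on Ni–NTA. They were incubated at 200 nM for 1 h at 25 °C on a custom Agilent array that had been made double-stranded with Cy5-dUTP, with 50 µM zinc acetate present, and the array was washed.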
In the case of “TCCTGAATTCGTCCCTACCCGCGCCAGATCGGAGCTCGTACGGAGTCACCTAGTGCAG”, the binding signal was 8030 fluorescence intensity (a.u.).

For the sequence “AACCTTTGCCCGCCGCCGCCGCCGACGAGAATCTCCTCCTCGGAGTCACCTAGTGCAG”, the binding signal is 10500 fluorescence intensity (a.u.).

For the sequence “GCCTCCACGCCTTGCTGCCGCAACTGACGTCGTCGTCGTCCGGAGTCACCTAGTGCAG”, the binding signal is 10900 fluorescence intensity (a.u.).

“CGTTACCTACTCCCTCCTACCACTACCACCAACGTCGCATCGGAGTCACCTAGTGCAG”: the binding signal was 8130 fluorescence intensity (a.u.).

Regarding “TCTCTCTCTCTACAGACTACAGTGCGTCGTCGTGTCTTCTCGGAGTCACCTAGTGCAG”, the binding signal is 10900 fluorescence intensity (a.u.).

Take “CGATCGATCGATCGCGCGCCTCCGCCTATAAATTCTTGCCCGGAGTCACCTAGTGCAG”: the binding signal was 8230 fluorescence intensity (a.u.).

“GCTCACCGCCGCTGTTCCTCCTCATGTTTGTGTACGCATCCGGAGTCACCTAGTGCAG”: the binding signal was 9730 fluorescence intensity (a.u.).

Consider “CCATACACCGGCCATGCTTGCTCCTCCTGCGTTCATGCATCGGAGTCACCTAGTGCAG”, for which the binding signal is 8670 fluorescence intensity (a.u.).

For the sequence “CCACTGTCATTTCGTCCGCTACGCTCCGGCCCAAGCCTCCCGGAGTCACCTAGTGCAG”, the binding signal is 8950 fluorescence intensity (a.u.).

On to “TCAGAAAATGTCACAAAATTGTTCGCTTTATCTCTATATCCGGAGTCACCTAGTGCAG”, for which the binding signal was 8160 fluorescence intensity (a.u.).

In the case of “TTATCCTCCTGGGAGTGTTGCAACTATGTTTTTTTAGTGTCGGAGTCACCTAGTGCAG”, the binding signal was 8780 fluorescence intensity (a.u.).

Take “AGTCTTTGAAGATGCTTATAGGGGTAGGGTTTGCGTGCGTCGGAGTCACCTAGTGCAG”: the binding signal was 9620 fluorescence intensity (a.u.).

As to “GCCATGATGCCTCTGTCGCCGTCTCCGGAGCCTACTCTCCCGGAGTCACCTAGTGCAG”, the binding signal is 10500 fluorescence intensity (a.u.).

Regarding “TTCCTGACCCTGCTTCACCTTAATTGTTATTTGAACAAAACGGAGTCACCTAGTGCAG”, the binding signal is 9510 fluorescence intensity (a.u.).

As to “CGTCTCGTCCACCGCGGCTCGCCTCGTCGTCTTCCAGCCGCGGAGTCACCTAGTGCAG”, the binding signal was 9050 fluorescence intensity (a.u.).

As for “AATTCTCCATTTAACTTTTCCGTTTTCCAATTTCACATCACGGAGTCACCTAGTGCAG”, the binding signal is 8580 fluorescence intensity (a.u.).

With “CTATCTATAGGCCCATTATTATCTATCTGTGTTATGTTTTCGGAGTCACCTAGTGCAG”, the binding signal is 8360 fluorescence intensity (a.u.).

In the case of “AGCTTTGGTTCTTGGTTTGTGTTTCTAGTTGATGCACTCCCGGAGTCACCTAGTGCAG”, the binding signal is 10200 fluorescence intensity (a.u.).

Consider “TCATTGTAGTTCTTTCCATCGCAGAGGGTGGGCTAGGGCGCGGAGTCACCTAGTGCAG”, for which the binding signal is 10700 fluorescence intensity (a.u.).

For the sequence “CTCTTTTTATGTTAAATCCACGTATCACCCACTCTCCTTTCGGAGTCACCTAGTGCAG”, the binding signal was 8420 fluorescence intensity (a.u.).

As for “TCGCTCTACCCCACCACTTCCTCACACGCGGCCGTCGCCGCGGAGTCACCTAGTGCAG”, the binding signal is 8240 fluorescence intensity (a.u.).

Take “CTCGCCGTGTTCTTCGCTCCGCCGCCGGGCGCCGCCGGATCGGAGTCACCTAGTGCAG”: the binding signal was 8540 fluorescence intensity (a.u.).

On to “TGTTATATTTGTATTTGTGCTTTGCTTCTTCTAGGCTTTTCGGAGTCACCTAGTGCAG”, for which the binding signal was 8740 fluorescence intensity (a.u.).

Turning to “ACCACTAGGAATCATTCAATTCAATTCATGGATATCCACTCGGAGTCACCTAGTGCAG”, the binding signal was 8580 fluorescence intensity (a.u.).

Regarding “TGGTCGGACCACAACAAAATTGTTTCCGTCTATGTTTCCACGGAGTCACCTAGTGCAG”, the binding signal was 8930 fluorescence intensity (a.u.).

Turning to “TCACCGACCTCCCGCCGGTCACCGCGCTGCTCACGCCGGACGGAGTCACCTAGTGCAG”, the binding signal is 8810 fluorescence intensity (a.u.).

In the case of “GAGATCCGAGGCACTCGTTGACCCTGCGCTCCGGCGGCCGCGGAGTCACCTAGTGCAG”, the binding signal is 8360 fluorescence intensity (a.u.).

Take “CACATCGCTTCGCCGCCGTATCCCTTCTCTTCTTCCTCTTCGGAGTCACCTAGTGCAG”: the binding signal was 16200 fluorescence intensity (a.u.).

In the case of “CGATATCTTTCTAACGCCGCTGGTTTCACTCAATTCCGACCGGAGTCACCTAGTGCAG”, the binding signal was 8950 fluorescence intensity (a.u.).

In the case of “AATATTTGTTTCACCTGTACTGTTTCTGCTGCATGCATTCCGGAGTCACCTAGTGCAG”, the binding signal is 11300 fluorescence intensity (a.u.).

As to “CCGCCGCTGCCCACCAGGCACCACAGTAATTAATTTCTTTCGGAGTCACCTAGTGCAG”, the binding signal is 8350 fluorescence intensity (a.u.).

For “GCAGTTTTCTAATGACCGTGTTGTTTTCGGTTATTTTTGTCGGAGTCACCTAGTGCAG”, the binding signal was 8900 fluorescence intensity (a.u.).

On to “GGTCCCAGCTTTTGTCATTTGTATGTGTTTGTTCAACTGGCGGAGTCACCTAGTGCAG”, for which the binding signal was 13400 fluorescence intensity (a.u.).

Consider “CACACATATACTTGCTTGTATAGAAAATGTTCCTTTCGTTCGGAGTCACCTAGTGCAG”, for which the binding signal is 8040 fluorescence intensity (a.u.).

Take “CTTGGTTTTCTTGATTTCTTGGGTTCTTGGCTACTGGGGCCGGAGTCACCTAGTGCAG”: the binding signal is 9490 fluorescence intensity (a.u.).

In the case of “GTCGCCTGCAGTTCTGACCGCCAAAACACCCACTGCCTACCGGAGTCACCTAGTGCAG”, the binding signal was 8300 fluorescence intensity (a.u.).

For “CTGACTTCAATTTTTCGTTGCCTTGGTTTTCTAGTTGTATCGGAGTCACCTAGTGCAG”, the binding signal was 13200 fluorescence intensity (a.u.).

As for “AAAAACGTCTCAATTGTAAGCTCACTATCTAACAATTTTCCGGAGTCACCTAGTGCAG”, the binding signal was 11200 fluorescence intensity (a.u.).

In the case of “CGACGGCGGCGGCTCCCTACCTCTTCCCGTCTCCTTCTTCCGGAGTCACCTAGTGCAG”, the binding signal was 8720 fluorescence intensity (a.u.).

For “TAACGCATCATTTCCCGGCGCGCCATCCTCCGCTTCGAAGCGGAGTCACCTAGTGCAG”, the binding signal is 11900 fluorescence intensity (a.u.).

As for “TTTTTTTTTCAGACCTTGTACAAACGCATACACATATAAACGGAGTCACCTAGTGCAG”, the binding signal is 8180 fluorescence intensity (a.u.).

Consider “GACCACACACTTGTTGGCGCCCGCGTGGATCTCTCCATCTCGGAGTCACCTAGTGCAG”, for which the binding signal is 8210 fluorescence intensity (a.u.).

With “ACCCCGTGACTAGAAATCTTCCAGCATCAGAATATGTAATCGGAGTCACCTAGTGCAG”, the binding signal was 9320 fluorescence intensity (a.u.).

In the case of “TCTTGTCCCTGGTGTGTGGGTAGTTGCTGTTTCAGAGATGCGGAGTCACCTAGTGCAG”, the binding signal was 12500 fluorescence intensity (a.u.).

Regarding “CCCAACTCTACTCTCTCTATTTTCACGCACACGCTTCCTACGGAGTCACCTAGTGCAG”, the binding signal is 9150 fluorescence intensity (a.u.).

For “CATGGCGTATTGGATGGCCGCCTCGCGTTTTGTGTCGTTCCGGAGTCACCTAGTGCAG”, the binding signal was 10600 fluorescence intensity (a.u.).

Consider “GAGGGGTTTCATTGTTATTTTTGGGTAATCCAAATTTACACGGAGTCACCTAGTGCAG”, for which the binding signal was 16300 fluorescence intensity (a.u.).

For the sequence “ATCCTACACTCAGCTGCACCCCTCCAGTAGAGCGAGCAATCGGAGTCACCTAGTGCAG”, the binding signal was 8230 fluorescence intensity (a.u.).

With “GCCATCCATCGATCCATTATTATATGGCCTGGGCGCGCGCCGGAGTCACCTAGTGCAG”, the binding signal was 9140 fluorescence intensity (a.u.).

For “TTCCTTTGCCTTCATATGCGTGAAATGTAGTAAGCAGTATCGGAGTCACCTAGTGCAG”, the binding signal was 8180 fluorescence intensity (a.u.).

“CCGCGAACCCTCTCACCTGACGCAACCCCGAATCTTGCCTCGGAGTCACCTAGTGCAG”: the binding signal was 8880 fluorescence intensity (a.u.).

“AAAGTCACTAATGTGGAGGGAGACGGTACCAATATCGTTTCGGAGTCACCTAGTGCAG”: the binding signal is 14900 fluorescence intensity (a.u.).

Regarding “GACAAACTGCAGCATATACACACACGTACGCACCCGCATCCGGAGTCACCTAGTGCAG”, the binding signal was 9370 fluorescence intensity (a.u.).

On to “GGAGGGAGAAGGTGCGGGGAGGGAGAAGTCTCGGCGCTGGCGGAGTCACCTAGTGCAG”, for which the binding signal was 9060 fluorescence intensity (a.u.).

(Values after PMC7819943, “Rice protein-binding microarrays: a tool to detect cis-acting elements near promoter regions in rice”.)
